Test results reported in patent EP4837902A1, “LIPID COMPOUND AND LIPID NANOPARTICLE FOR DELIVERY” (dated 2026).

Assays:
[1] = Encapsulation efficiency of mRNA-loaded LNPs (RiboGreen assay kit, 10% OTG as demulsifier); details: LNP of compound, cholesterol, DSPC, DMG-PEG2000 in molar ratio 50:38.5:10:1.5; encapsulated mRNA
Experimental: (§1) An mRNA stock solution was dispersed in a 20 mM acetic acid solution (pH 5.3) to a final concentration of 200 µg/mL (aqueous phase). The example compound, cholesterol, DSPC, and DMG-PEG2000 were mixed in a molar ratio of 50:38.5:10:1.5 to form a mixed lipid (oil phase). Flow rates of the aqueous phase and the oil phase were controlled to mix mRNA with the lipid mixture via T-junction mixing, to obtain LNP encapsulated mRNA. The encapsulated LNPs were diluted with a buffer solution and then concentrated by ultrafiltration. The diluent was replaced. Finally, the LNPs were concentrated to an mRNA concentration of 100 µg/mL, and the pH of the LNPs was adjusted to about 7.0-8.5. Finally, the total mRNA content and free mRNA content in the LNPs were measured by using a RiboGreen assay kit and 10% OTG as a demulsifier, and the encapsulation efficiency of the LNPs was calculated. The final LNP product was diluted with a diluent, added (1 ml) to a particle size cell, and placed on a Malvern Zetasizer instrument to measure the particle size of the LNPs.

[2] = Particle size and PDI of LNPs (Malvern Zetasizer); details: LNP of compound, cholesterol, DSPC, DMG-PEG2000 in molar ratio 50:38.5:10:1.5; encapsulated mRNA
Experimental: as §1

SMILES	Encapsulation efficiency [1]	PDI [2]	Particle size [2]
CCCCC/C=C\C/C=C\CCCCCCCCC(CCCCCCCC/C=C\C/C=C\CCCCC)OC(=O)CCCN(C)C	92.17%	0.1415	74.36 nm
CCCCCCCCC(CCCCCC)C(=O)OCCCCCCC1(CCCCCCOC(=O)C(CCCCCC)CCCCCCCC)OCC(CCCCN(C)C)O1 (stereo not drawn)	98.71%	0.0152	79.91 nm

The structures given here were assigned with low confidence; some may be wrong.
